{"source": "patent US9957271B2", "about": "“Substituted bicyclic aza-heterocycles and analogues as sirtuin modulators” (GlaxoSmithKline, LLC, priority 2012, dated 2018)", "note": "At least one structure is not confirmed: it was looked up by name or label, or the drawing left a doubt."}
{"molecular_target": "T1, SIRT1 (Homo sapiens, UniProt Q96EB6)", "T1 sequence (Q96EB6 1-747)": "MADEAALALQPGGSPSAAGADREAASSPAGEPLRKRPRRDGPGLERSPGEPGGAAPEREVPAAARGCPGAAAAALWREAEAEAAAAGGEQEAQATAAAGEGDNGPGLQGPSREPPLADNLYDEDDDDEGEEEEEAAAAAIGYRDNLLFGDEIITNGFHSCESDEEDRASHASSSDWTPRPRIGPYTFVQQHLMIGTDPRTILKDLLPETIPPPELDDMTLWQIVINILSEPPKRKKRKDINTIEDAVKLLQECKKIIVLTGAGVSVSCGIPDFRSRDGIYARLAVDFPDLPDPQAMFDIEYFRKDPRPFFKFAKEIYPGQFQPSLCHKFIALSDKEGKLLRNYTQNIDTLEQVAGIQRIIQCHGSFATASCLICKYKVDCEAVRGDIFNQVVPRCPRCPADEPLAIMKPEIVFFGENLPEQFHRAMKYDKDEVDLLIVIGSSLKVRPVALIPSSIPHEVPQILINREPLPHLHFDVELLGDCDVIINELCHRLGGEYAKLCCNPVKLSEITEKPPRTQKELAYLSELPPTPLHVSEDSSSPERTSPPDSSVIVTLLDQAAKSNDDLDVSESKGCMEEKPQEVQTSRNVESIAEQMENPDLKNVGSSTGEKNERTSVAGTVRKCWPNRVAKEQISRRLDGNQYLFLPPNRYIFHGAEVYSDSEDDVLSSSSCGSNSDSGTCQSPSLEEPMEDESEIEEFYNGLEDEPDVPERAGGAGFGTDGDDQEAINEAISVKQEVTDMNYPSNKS", "experiment": "Trp mass spectrometry assay of SIRT1 activity", "assay_type": "biochemical", "conditions": "Trp assay; concentration giving 150% activation of SIRT1", "in_short": "(§1)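 His-tagged SIRT1 expressed in E. coli BL21(DE3), 10 nM, incubated 25 min at 25° C. with 0.5 μM Ac-RHKK(Ac)W-NH2 peptide and 120 μM βNAD+ in 50 mM HEPES pH 7.5, […], 1 mM DTT, 0.05% BSA; formic acid stop. OAADPR or deacetylated peptide measured by mass spectrometry; EC1.5 and percent maximum activation versus DMSO control.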"}
{"smiles": "Cc1nc2ccc(-c3ccccc3F)nn2c1C(=O)Nc1cccnn1", "note": "[Compound 706]", "Trp EC1.5 (μM)": "A (EC1.5<1 μM)"}
{"smiles": "Cc1nc(NC(=O)c2cnc3ccc(N4CCCC4C(F)(F)F)nn23)sc1C", "note": "(stereo not drawn) [Compound 969]", "Trp EC1.5 (μM)": "A (EC1.5<1 μM)"}
{"smiles": "O=C(Nc1cncc(F)c1)c1cnc2ccc(N3CCC(C(F)(F)F)C3)nn12", "note": "(stereo not drawn) [Compound 959]", "Trp EC1.5 (μM)": "A (EC1.5<1 μM)"}
{"smiles": "Cc1nc2ccc(N3CCC(F)(F)C3)nn2c1C(=O)Nc1cccnc1", "note": "[Compound 980, 6-(3,3-difluoropyrrolidin-1-yl)-2-methyl-N-(pyridin-3-yl)imidazo[1,2-b]pyridazine-3-carboxamide]", "Trp EC1.5 (μM)": "B (EC1.5 1-25 μM)"}
{"smiles": "O=C(Nc1cccnn1)c1cnc2ccc(N3CCC[C@H](F)C3)nn12", "note": "[Compound 989]", "Trp EC1.5 (μM)": "B (EC1.5 1-25 μM)"}
{"smiles": "CC1CCN(c2ccc3ncc(C(=O)Nc4cccnn4)n3n2)C1", "note": "(stereo not drawn) [Compound 978]", "Trp EC1.5 (μM)": "A (EC1.5<1 μM)"}
{"smiles": "Cc1nc2ccc(N3CCC(C(F)(F)F)C3)nn2c1C(=O)Nc1cccnn1", "note": "(stereo not drawn) [Compound 998]", "Trp EC1.5 (μM)": "A (EC1.5<1 μM)"}
{"smiles": "O=C(Nc1ccccn1)c1cnc2ccc(N3CCC[C@H](F)C3)nn12", "note": "[Compound 986]", "Trp EC1.5 (μM)": "A (EC1.5<1 μM)"}
{"molecular_target": "T1, SIRT1", "experiment": "Trp mass spectrometry assay of SIRT1 activity", "assay_type": "biochemical", "conditions": "concentration of test compound that results in 150% activation of SIRT1; Trp peptide substrate", "in_short": "as §1"}
{"smiles": "COc1nccc(NC(=O)c2c(C)nn3ccc(N4CCC[C@@H]4C(F)(F)F)nc23)n1", "note": "[Compound 1085]", "Trp EC1.5 (μM)": "A (EC1.5<1 μM)"}
{"smiles": "O=C(Nc1cccnc1)c1cnn2ccc(N3CCCC(C(F)(F)F)C3)nc12", "note": "(stereo not drawn) [Compound 1007]", "Trp EC1.5 (μM)": "A (EC1.5<1 μM)"}
{"smiles": "Cc1cncc(NC(=O)c2cnc3ccc(N4CCC[C@@H]4C)nn23)c1", "note": "[Compound 1058]", "Trp EC1.5 (μM)": "B (EC1.5 1-25 μM)"}
{"smiles": "O=C(Nc1cc(-c2cnco2)ccn1)c1cnn2ccc(N3CCC(C(F)(F)F)CC3)nc12", "note": "[Compound 1074]", "Trp EC1.5 (μM)": "A (EC1.5<1 μM)"}
{"smiles": "Cc1cncc(NC(=O)c2cnn3ccc(N4CCCC4C)nc23)c1", "note": "(stereo not drawn) [Compound 1045]", "Trp EC1.5 (μM)": "B (EC1.5 1-25 μM)"}
{"smiles": "C[C@H]1CCCN1c1ccc2ncc(C(=O)Nc3cccnn3)n2n1", "note": "[Compound 1055]", "Trp EC1.5 (μM)": "B (EC1.5 1-25 μM)"}
{"smiles": "Cc1nn2ccc(N3CCC[C@H]3C(F)(F)F)nc2c1C(=O)Nc1cnccn1", "note": "[Compound 1046]", "Trp EC1.5 (μM)": "A (EC1.5<1 μM)"}
{"smiles": "Cc1nc2ccc(N3CCC[C@H]3C(F)(F)F)nn2c1C(=O)Nc1ccccn1", "note": "[Compound 1015]", "Trp EC1.5 (μM)": "A (EC1.5<1 μM)"}
{"smiles": "O=C(Nc1cccnn1)c1cnn2ccc(N3CCCCC3C(F)(F)F)nc12", "note": "(stereo not drawn) [Compound 1021]", "Trp EC1.5 (μM)": "B (EC1.5 1-25 μM)"}
{"smiles": "O=C(Nc1ccccn1)c1cnn2ccc(N3CCC(C(F)(F)F)C3)nc12", "note": "(stereo not drawn) [Compound 1011]", "Trp EC1.5 (μM)": "A (EC1.5<1 μM)"}
{"smiles": "Cc1nn2ccc(N3CCC[C@H]3C(F)(F)F)nc2c1C(=O)Nc1cncc(F)c1", "note": "[Compound 1050]", "Trp EC1.5 (μM)": "A (EC1.5<1 μM)"}
{"smiles": "COc1nccc(NC(=O)c2cnn3ccc(N4CCC(C(F)(F)F)CC4)nc23)n1", "note": "[Compound 1064]", "Trp EC1.5 (μM)": "A (EC1.5<1 μM)"}
{"smiles": "Cc1nc2ccc(N3CCC[C@H]3C(F)(F)F)nn2c1C(=O)Nc1cccnc1", "note": "[Compound 1016]", "Trp EC1.5 (μM)": "A (EC1.5<1 μM)"}
{"smiles": "CC1CCCN1c1ccn2ncc(C(=O)Nc3ccccn3)c2n1", "note": "(stereo not drawn) [Compound 1037]", "Trp EC1.5 (μM)": "B (EC1.5 1-25 μM)"}
{"smiles": "O=C(Nc1cccc2c1COB2O)c1cnc2ccc(N3CCCC3C(F)(F)F)nn12", "note": "(stereo not drawn) [Compound 1097]", "Trp EC1.5 (μM)": "B (EC1.5 1-25 μM)"}
{"smiles": "O=C(Nc1cccc(-c2cnco2)n1)c1cnn2ccc(N3CCC[C@@H]3C(F)(F)F)nc12", "note": "[Compound 1081]", "Trp EC1.5 (μM)": "A (EC1.5<1 μM)"}
{"smiles": "Cc1nn2ccc(N3CCC[C@H]3C(F)(F)F)nc2c1C(=O)Nc1ccncn1", "note": "[Compound 1048]", "Trp EC1.5 (μM)": "A (EC1.5<1 μM)"}
{"smiles": "COc1nccc(NC(=O)c2cnn3ccc(N4CCC[C@H]4C(F)(F)F)nc23)n1", "note": "[Compound 1024]", "Trp EC1.5 (μM)": "A (EC1.5<1 μM)"}
{"smiles": "O=C(Nc1cncc(F)c1)c1cnn2ccc(N3CCC(C(F)(F)F)CC3)nc12", "note": "[Compound 1067]", "Trp EC1.5 (μM)": "B (EC1.5 1-25 μM)"}
{"smiles": "O=C(Nc1ccccn1)c1cnn2ccc(N3CCC(C(F)(F)F)CC3)nc12", "note": "[Compound 1060]", "Trp EC1.5 (μM)": "A (EC1.5<1 μM)"}
{"smiles": "O=C(Nc1cccnn1)c1cnn2ccc(N3CCC[C@@H]3C(F)(F)F)nc12", "note": "[Compound 1079]", "Trp EC1.5 (μM)": "B (EC1.5 1-25 μM)"}
{"molecular_target": "T1, SIRT1", "experiment": "TAMRA based mass spectrometry assay of SIRT1 activity", "assay_type": "biochemical", "conditions": "concentration giving 150% activation of SIRT1", "text": "Mass spectrometry based assays were used to identify modulators of SIRT1 activity. The TAMRA based assay utilized a peptide having 20 amino acid residues as follows: Ac-EE-K(biotin)-[…](Ac)NleSTEG-K(5TMR)-EE-NH2 (SEQ ID NO: 1), wherein K(Ac) is an acetylated lysine residue and Nle is a norleucine. The peptide was labeled with the fluorophore 5TMR (excitation 540 nm/emission 580 nm) at the C-terminus. The sequence of the peptide substrate was based on p53 with several modifications. In addition, the methionine residue naturally present in the sequence was replaced with the norleucine because the methionine may be susceptible to oxidation during synthesis and purification. The Trp based assay utilized a peptide having an amino acid residues as follows: Ac-R-H-K-K(Ac)-W-NH2 (SEQ ID NO: 2).\nThe TAMRA based mass spectrometry assay was conducted as follows: 0.5 μM peptide substrate and 120 μM βNAD^+ was incubated with 10 nM SIRT1 for 25 minutes at 25° C. in a reaction buffer (50 mM Tris-acetate pH 8, 137 mM NaCl, 2.7 mM KCl, 1 mM MgCl2, 5 mM DTT, 0.05% BSA). The SIRT1 protein was obtained by cloning the SirT1 gene into a T7-promoter containing vector, which was then transformed and expressed in BL21(DE3) bacterial cells. Test compound was added at varying concentrations to this reaction mixture and the resulting reactions were monitored. […]"}
{"smiles": "Cc1nc2ccc(-c3ccccc3F)nn2c1C(=O)Nc1cccnn1", "note": "[Compound 706]", "TAMRA EC1.5 (μM)": "B (EC1.5 1-25 μM)"}
